For one assay, the target named is FLAG-APEX2-BAX (UniProt Q07812). The assay can be described thus: condition: only healthy cells (no apoptosis induction); proximity labelling; as a2, but healthy cells (no apoptosis induction).
The next assay has as its target FLAG-APEX2-BAK (UniProt Q16611). Described as above.

Chains of the proteins cited; added tags and fusions are not shown.
UniProt Q07812: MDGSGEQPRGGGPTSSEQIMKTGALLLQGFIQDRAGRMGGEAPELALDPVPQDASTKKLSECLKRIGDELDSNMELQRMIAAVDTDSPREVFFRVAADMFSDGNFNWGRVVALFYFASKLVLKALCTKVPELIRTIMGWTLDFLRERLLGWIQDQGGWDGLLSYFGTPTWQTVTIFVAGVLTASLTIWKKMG
UniProt Q16611: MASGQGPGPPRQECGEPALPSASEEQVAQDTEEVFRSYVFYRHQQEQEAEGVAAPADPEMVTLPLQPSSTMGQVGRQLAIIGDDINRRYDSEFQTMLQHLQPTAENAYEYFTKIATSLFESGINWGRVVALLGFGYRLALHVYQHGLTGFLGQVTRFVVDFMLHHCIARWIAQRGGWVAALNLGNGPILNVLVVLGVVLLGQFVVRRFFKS

Results are given in words; binding and its absence hold for the method and conditions named. In cells and extracts the contact can be indirect. A yes stands for co-enrichment or nearness to the bait. Other partners may have been found. A no says only that the protein was not detected with the bait.

For the substance “BAK (endogenous, HeLa cells) (from UniProt Q16611 1-211)”, the binding result with FLAG-APEX2-BAX is recorded as “no binding”.
“BAX (endogenous, HeLa cells) (from UniProt Q07812 1-192)”: the binding entry with FLAG-APEX2-BAK is on record as “no binding”.

The values are drawn from paper PMC8901441.
